PubChem BioAssay AID1224830, NIAID – 2016
Screen: 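Genes whose knock-down alters the TNF-alpha reporter response to LPS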 (primary screen). System: human THP-1 monocytic leukaemia cells, TNF dual-luciferase reporter clone, PMA-differentiated to macrophage-like cells. Reagents: siRNA pool against human genes, 50 nM. Time to read-out: LPS for 4 h, given about 3 days after siRNA transfection. Conditions: bacterial LPS (TLR4 ligand), 10 ng/ml. Measurement: 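Ratio of firefly to renilla light, scaled to the plate median and expressed as a robust z-score per replicate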. Direction: TNF reporter robust z-score: higher = stronger TNF reporter response to LPS. Call rule: 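a well is active when its z-score exceeds 2.8 or falls below -1.5; control wells carry no call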.
The whole screen tested about 18,000 reagents; below is a random part of them. About 2,900 of all reagents (16%) count as active. 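Calls are made per well; low scores hint the gene aids the LPS response, high scores that it dampens it.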 Entries without a mark were called inactive. Repeated entries: four replicate wells of each siRNA pool.

gene,PubChem SID,TNF reporter robust z-score
TRHR,SID315451973,-0.5
TRHR,SID315451973,-0.07
TRHR,SID315451973,-0.44
TRHR,SID315451973,1.33
UPK1B,SID315452056,2.12
UPK1B,SID315452056,0.5
UPK1B,SID315452056,1.71
UPK1B,SID315452056,1.91
EFCAB11,SID315460786,-1.3
EFCAB11,SID315460786,-1.27
EFCAB11,SID315460786,-2.13 (active)
EFCAB11,SID315460786,-1.99 (active)
FOXR1,SID315463637,-0.76
FOXR1,SID315463637,-0.09
FOXR1,SID315463637,-0.23
FOXR1,SID315463637,0.09
SLC39A1,SID315455961,-1.04
SLC39A1,SID315455961,0.31
SLC39A1,SID315455961,-0.33
SLC39A1,SID315455961,-0.66
PLPP4,SID315462952,-0.35
PLPP4,SID315462952,0.15
PLPP4,SID315462952,-0.55
PLPP4,SID315462952,-0.24
RSPH9,SID315463294,-0.45
RSPH9,SID315463294,-0.96
RSPH9,SID315463294,-1.25
RSPH9,SID315463294,-0.14
EXO5,SID315458999,-0.23
EXO5,SID315458999,-0.49
EXO5,SID315458999,-1.09
EXO5,SID315458999,-0.97
EEF1A2,SID315448441,0.66
EEF1A2,SID315448441,1.11
EEF1A2,SID315448441,1.22
EEF1A2,SID315448441,0.56
NCOA3,SID315452427,-0.82
NCOA3,SID315452427,-1.2
NCOA3,SID315452427,-1.35
NCOA3,SID315452427,-0.89
A3GALT2,SID315461760,-0.08
A3GALT2,SID315461760,0.68
A3GALT2,SID315461760,0.44
A3GALT2,SID315461760,0.93
SANBR,SID315460401,-0.45
SANBR,SID315460401,-0.13
SANBR,SID315460401,0.76
SANBR,SID315460401,0.66
SMG8,SID315457473,-0.24
SMG8,SID315457473,-0.69
SMG8,SID315457473,0.22
NPR2,SID315450298,2.81 (active)
NPR2,SID315450298,2.57
NPR2,SID315450298,2.05
NPR2,SID315450298,0.85
CCDC69,SID315455673,0.26
CCDC69,SID315455673,0.37
CCDC69,SID315455673,-0.35
CCDC69,SID315455673,0.77
NOS1,SID315450272,0.72
NOS1,SID315450272,1.59
NOS1,SID315450272,1.06
NOS1,SID315450272,0.82
SUPT3H,SID315452581,7.89 (active)
SUPT3H,SID315452581,3.2 (active)
SUPT3H,SID315452581,1.02
YJU2B,SID315459902,-0.39
YJU2B,SID315459902,-0.67
YJU2B,SID315459902,-1.17
YJU2B,SID315459902,-1.74 (active)
ALG3,SID315453893,-0.31
ALG3,SID315453893,1.9
ALG3,SID315453893,0.57
ALG3,SID315453893,2.83 (active)
CSPP1,SID315459510,0.87
CSPP1,SID315459510,-0.03
CSPP1,SID315459510,0.41
CSPP1,SID315459510,1.01
NNMT,SID315450268,0.18
NNMT,SID315450268,-0.23
NNMT,SID315450268,-0.4
NNMT,SID315450268,-0.52
TCEA1,SID315451776,-0.09
TCEA1,SID315451776,-0.25
TCEA1,SID315451776,1.15
DDX5,SID315448276,0.12
DDX5,SID315448276,0.2
DDX5,SID315448276,0.69
DDX5,SID315448276,1.2
TIMM13,SID315455801,-1.19
TIMM13,SID315455801,-1.12
TIMM13,SID315455801,-0.81
TIMM13,SID315455801,-0.79
CYTIP,SID315453410,-0.36
CYTIP,SID315453410,-0.31
CYTIP,SID315453410,-0.69
CYTIP,SID315453410,-0.6
MORC2,SID315454842,1.7
MORC2,SID315454842,0.24
MORC2,SID315454842,0.11
MORC2,SID315454842,1.52
CFAP74,SID315460700,-0.26
CFAP74,SID315460700,1.42
CFAP74,SID315460700,1.11
CFAP74,SID315460700,0.85
CFAP74,SID315464037,0.19
CFAP74,SID315464037,0.92
CFAP74,SID315464037,0.64
CFAP74,SID315464037,0.62
CCSAP,SID315461724,-0.22
CCSAP,SID315461724,-0.04
CCSAP,SID315461724,0.04
CCSAP,SID315461724,-0.16
